According to article PMC10726135:
These are yes or no findings as the source states them, for the method shown. Binding seen in cells or lysates may run through a third protein. Here binding means that the protein was enriched with, or labelled near, the bait; the list need not be complete. For some of these results: A no says only that the protein was not detected with the bait.

How the values were obtained:
[1] = biological target: T1, P1-HNF4α (Hepatocyte Nuclear Factor 4 alpha from the P1 promoter, exon 1A), HNF4α in WT livers (mouse (endogenous in liver)) (UniProt P49698); assay: affinity purification with mass spectrometry; RIME as in a1 and a2; the text does not tell at which time point (10:30 or 20:30) these pairs were found
T1 sequence: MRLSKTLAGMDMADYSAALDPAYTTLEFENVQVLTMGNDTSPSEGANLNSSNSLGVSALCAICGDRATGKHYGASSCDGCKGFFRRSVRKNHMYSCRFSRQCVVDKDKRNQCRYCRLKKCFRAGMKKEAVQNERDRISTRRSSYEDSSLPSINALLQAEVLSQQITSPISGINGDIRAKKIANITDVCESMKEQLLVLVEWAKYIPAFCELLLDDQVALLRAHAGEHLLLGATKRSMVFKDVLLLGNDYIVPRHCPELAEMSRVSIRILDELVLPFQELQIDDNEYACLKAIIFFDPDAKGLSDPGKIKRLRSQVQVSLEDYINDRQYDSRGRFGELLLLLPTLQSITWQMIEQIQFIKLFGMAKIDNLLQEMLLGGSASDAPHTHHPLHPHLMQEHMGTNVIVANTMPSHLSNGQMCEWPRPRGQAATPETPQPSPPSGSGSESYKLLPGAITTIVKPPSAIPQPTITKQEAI

[2] = biological target: P2-HNF4α (Hepatocyte Nuclear Factor 4 alpha from exon 1D), HNF4α in α7HMZ livers (mouse (endogenous in liver)); assay: as above
[3] = biological target: T1, P1-HNF4α (Hepatocyte Nuclear Factor 4 alpha from the P1 promoter, exon 1A), HNF4α in WT livers (mouse (endogenous in liver)); assay: affinity purification with mass spectrometry; RIME: livers of WT and α7HMZ male mice (n=3) sacrificed at 20:30 (ZT13.5), crosslinked, IP'd with the P1/P2 HNF4α antibody, MudPIT; proteins at least 8-fold above IgG background; 8-fold difference between WT and α7HMZ taken as unique
[4] = biological target: P2-HNF4α (Hepatocyte Nuclear Factor 4 alpha from exon 1D), HNF4α in α7HMZ livers (mouse (endogenous in liver)); assay: as above
[5] = biological target: T1, P1-HNF4α (Hepatocyte Nuclear Factor 4 alpha from the P1 promoter, exon 1A), HNF4α in WT livers (mouse (endogenous in liver)); assay: affinity purification with mass spectrometry; RIME: livers of WT and α7HMZ male mice (n=3) sacrificed at 10:30 (ZT3.5), crosslinked, IP'd with the P1/P2 HNF4α antibody, MudPIT; proteins at least 8-fold above IgG background; 8-fold difference between WT and α7HMZ taken as unique
[6] = biological target: T2, P1-HNF4α (Hepatocyte Nuclear Factor 4 alpha from the P1 promoter, exon 1A), HNF4α in WT livers (mouse (endogenous in liver)), P49698; assay: as above; details: remark: other sources report otherwise
T2 chain: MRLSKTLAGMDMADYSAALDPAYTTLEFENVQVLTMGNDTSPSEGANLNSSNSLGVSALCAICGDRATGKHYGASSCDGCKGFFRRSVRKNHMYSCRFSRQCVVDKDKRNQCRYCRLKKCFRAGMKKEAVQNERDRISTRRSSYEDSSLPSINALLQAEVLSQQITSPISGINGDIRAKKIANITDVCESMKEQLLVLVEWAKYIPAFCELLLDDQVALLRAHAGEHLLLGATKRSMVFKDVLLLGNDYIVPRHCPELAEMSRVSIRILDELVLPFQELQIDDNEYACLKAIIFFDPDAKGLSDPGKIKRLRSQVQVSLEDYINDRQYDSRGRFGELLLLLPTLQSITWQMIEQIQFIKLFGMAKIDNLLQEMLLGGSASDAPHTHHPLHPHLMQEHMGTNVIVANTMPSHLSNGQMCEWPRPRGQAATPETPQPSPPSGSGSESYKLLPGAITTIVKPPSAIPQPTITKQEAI

[7] = biological target: T2, P1-HNF4α (Hepatocyte Nuclear Factor 4 …); assay: affinity purification with mass spectrometry; RIME: livers of WT and α7HMZ male mice (n=3) sacrificed at 20:30 (ZT13.5), crosslinked, IP'd with the P1/P2 HNF4α antibody, MudPIT; proteins at least 8-fold above IgG background; 8-fold difference between WT and α7HMZ taken as unique; details: remark: other sources report otherwise

B1: NR0B2 (SHP) (protein, UniProt Q62227 1-260)
chain: MSSGQSGVCPCQGSAGRPTILYALLSPSPRTRPVAPASHSHCLCQQQRPVRLCAPHRTCREALDVLAKTVAFLRNLPSFCHLPHEDQRRLLECCWGPLFLLGLAQDAVTFEVAEAPVPSILKKILLEEASSGTQGAQPSDRPQPSLAAVQWLQRCLESFWSLELGPKEYAYLKGTILFNPDVPGLRASCHIAHLQQEAHWALCEVLEPWYPASQGRLARILLMASTLKNIPGTLLVDLFFRPIMGDVDITELLEDMLLLR
For B1, the binding [1] was “binds” and the binding [2] was “binds”.

B2: ESRRG (ERRγ, Nr3b3) (protein, UniProt P62509 1-458)
chain: MDSVELCLPESFSLHYEEELLCRMSNKDRHIDSSCSSFIKTEPSSPASLTDSVNHHSPGGSSDASGSYSSTMNGHQNGLDSPPLYPSAPILGGSGPVRKLYDDCSSTIVEDPQTKCEYMLNSMPKRLCLVCGDIASGYHYGVASCEACKAFFKRTIQGNIEYSCPATNECEITKRRRKSCQACRFMKCLKVGMLKEGVRLDRVRGGRQKYKRRIDAENSPYLNPQLVQPAKKPYNKIVSHLLVAEPEKIYAMPDPTVPDSDIKALTTLCDLADRELVVIIGWAKHIPGFSTLSLADQMSLLQSAWMEILILGVVYRSLSFEDELVYADDYIMDEDQSKLAGLLDLNNAILQLVKKYKSMKLEKEEFVTLKAIALANSDSMHIEDVEAVQKLQDVLHEALQDYEAGQHMEDPRRAGKMLMTLPLLRQTSTKAVQHFYNIKLEGKVPMHKLFLEMLEAKV
For B2, the binding [3] was “no binding”, the binding [4] was “binds” and the binding [5] was “no binding”.

B3: xenobiotic receptor PXR (NR1I2), O54915 1-431 (protein)
chain: MRPEESWSRVGLVQCEEADSALEEPINVEEEDGGLQICRVCGDKANGYHFNVMTCEGCKGFFRRAMKRNVRLRCPFRKGTCEITRKTRRQCQACRLRKCLESGMKKEMIMSDAAVEQRRALIKRKKREKIEAPPPGGQGLTEEQQALIQELMDAQMQTFDTTFSHFKDFRLPAVFHSGCELPEFLQASLLEDPATWSQIMKDRVPMKISLQLRGEDGSIWNYQPPSKSDGKEIIPLLPHLADVSTYMFKGVINFAKVISYFRDLPIEDQISLLKGATFEMCILRFNTMFDTETGTWECGRLAYCFEDPNGGFQKLLLDPLMKFHCMLKKLQLHKEEYVLMQAISLFSPDRPGVVQRSVVDQLQERFALTLKAYIECSRPYPAHRFLFLKIMAVLTELRSINAQQTQQLLRIQDSHPFATPLMQELFSSTDG
For B3, the binding [6] was “no binding” and the binding [7] was “no binding”.
